# Measured values: the supplement of paper PMC10849652
# Chains of the proteins cited; added tags and fusions are not shown. Lines headed by an entry give the natural chain unless they say otherwise; changes in a name come on top.
# UniProt A8K2U0: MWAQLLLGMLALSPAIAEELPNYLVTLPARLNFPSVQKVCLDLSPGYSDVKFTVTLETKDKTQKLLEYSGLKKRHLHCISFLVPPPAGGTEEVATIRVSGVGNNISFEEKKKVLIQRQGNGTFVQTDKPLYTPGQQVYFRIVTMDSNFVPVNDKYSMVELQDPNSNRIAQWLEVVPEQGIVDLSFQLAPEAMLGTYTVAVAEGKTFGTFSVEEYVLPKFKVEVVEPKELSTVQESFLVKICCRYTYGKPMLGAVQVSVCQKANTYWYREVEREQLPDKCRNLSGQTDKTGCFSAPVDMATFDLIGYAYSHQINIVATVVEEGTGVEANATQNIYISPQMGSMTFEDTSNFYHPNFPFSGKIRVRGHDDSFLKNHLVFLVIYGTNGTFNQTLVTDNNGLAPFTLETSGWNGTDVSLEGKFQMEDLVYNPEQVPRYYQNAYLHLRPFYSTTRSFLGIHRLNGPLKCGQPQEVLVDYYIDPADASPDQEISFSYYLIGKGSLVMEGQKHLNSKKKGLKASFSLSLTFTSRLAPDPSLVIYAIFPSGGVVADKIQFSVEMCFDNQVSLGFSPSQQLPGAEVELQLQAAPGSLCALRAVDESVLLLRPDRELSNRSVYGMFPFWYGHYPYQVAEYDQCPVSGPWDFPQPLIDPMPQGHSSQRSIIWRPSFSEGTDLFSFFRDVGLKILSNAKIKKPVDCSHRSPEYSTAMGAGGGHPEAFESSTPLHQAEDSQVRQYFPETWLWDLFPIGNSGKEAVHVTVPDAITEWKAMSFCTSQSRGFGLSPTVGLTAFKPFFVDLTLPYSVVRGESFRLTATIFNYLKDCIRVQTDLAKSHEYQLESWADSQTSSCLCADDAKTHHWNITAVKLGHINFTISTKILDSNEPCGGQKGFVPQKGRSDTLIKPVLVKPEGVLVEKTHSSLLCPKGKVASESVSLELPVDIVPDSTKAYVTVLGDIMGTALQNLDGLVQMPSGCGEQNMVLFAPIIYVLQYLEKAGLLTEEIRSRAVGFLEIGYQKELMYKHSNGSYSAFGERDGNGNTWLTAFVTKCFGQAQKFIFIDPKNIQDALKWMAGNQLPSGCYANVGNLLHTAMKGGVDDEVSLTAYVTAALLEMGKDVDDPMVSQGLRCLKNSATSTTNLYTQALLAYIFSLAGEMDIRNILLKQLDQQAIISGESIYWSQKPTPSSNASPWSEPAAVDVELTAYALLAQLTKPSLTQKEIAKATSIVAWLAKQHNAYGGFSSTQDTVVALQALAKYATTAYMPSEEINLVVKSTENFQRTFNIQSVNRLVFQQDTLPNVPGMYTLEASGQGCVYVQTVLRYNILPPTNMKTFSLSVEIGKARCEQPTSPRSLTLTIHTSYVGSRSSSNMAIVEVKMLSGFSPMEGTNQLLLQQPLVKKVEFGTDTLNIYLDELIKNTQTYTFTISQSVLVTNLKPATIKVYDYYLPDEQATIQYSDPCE
# UniProt P42684, whole entry, looked up: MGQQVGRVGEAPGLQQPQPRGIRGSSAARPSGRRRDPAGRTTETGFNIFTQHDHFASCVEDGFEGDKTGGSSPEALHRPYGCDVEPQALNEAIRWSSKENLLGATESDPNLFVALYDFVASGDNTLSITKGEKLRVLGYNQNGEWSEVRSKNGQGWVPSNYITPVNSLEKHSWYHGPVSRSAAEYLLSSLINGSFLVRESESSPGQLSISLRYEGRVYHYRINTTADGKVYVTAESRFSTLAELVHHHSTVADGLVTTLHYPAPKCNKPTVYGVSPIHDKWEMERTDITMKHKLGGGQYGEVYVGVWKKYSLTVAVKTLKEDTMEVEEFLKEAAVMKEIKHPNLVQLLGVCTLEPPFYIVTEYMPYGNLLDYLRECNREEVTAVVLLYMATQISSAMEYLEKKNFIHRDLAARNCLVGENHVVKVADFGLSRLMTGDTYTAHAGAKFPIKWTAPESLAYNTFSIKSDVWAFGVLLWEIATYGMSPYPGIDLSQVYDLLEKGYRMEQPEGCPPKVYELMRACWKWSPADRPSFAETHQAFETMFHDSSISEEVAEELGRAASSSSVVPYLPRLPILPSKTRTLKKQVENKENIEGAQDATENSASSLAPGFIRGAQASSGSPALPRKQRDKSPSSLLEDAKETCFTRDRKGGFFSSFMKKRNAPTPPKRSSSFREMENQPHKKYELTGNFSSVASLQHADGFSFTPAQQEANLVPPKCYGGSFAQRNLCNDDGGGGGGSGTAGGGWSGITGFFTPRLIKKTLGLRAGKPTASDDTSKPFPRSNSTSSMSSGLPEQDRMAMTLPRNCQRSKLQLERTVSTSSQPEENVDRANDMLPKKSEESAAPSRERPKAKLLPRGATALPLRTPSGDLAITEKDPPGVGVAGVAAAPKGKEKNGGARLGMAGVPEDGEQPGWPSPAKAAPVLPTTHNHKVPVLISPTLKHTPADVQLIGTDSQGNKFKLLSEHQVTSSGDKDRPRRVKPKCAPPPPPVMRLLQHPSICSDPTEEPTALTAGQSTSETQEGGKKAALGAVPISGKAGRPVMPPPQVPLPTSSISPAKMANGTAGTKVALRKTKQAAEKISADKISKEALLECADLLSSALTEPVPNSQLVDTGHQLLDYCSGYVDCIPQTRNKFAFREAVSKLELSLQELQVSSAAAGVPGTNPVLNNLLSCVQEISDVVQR
# UniProt Q99758: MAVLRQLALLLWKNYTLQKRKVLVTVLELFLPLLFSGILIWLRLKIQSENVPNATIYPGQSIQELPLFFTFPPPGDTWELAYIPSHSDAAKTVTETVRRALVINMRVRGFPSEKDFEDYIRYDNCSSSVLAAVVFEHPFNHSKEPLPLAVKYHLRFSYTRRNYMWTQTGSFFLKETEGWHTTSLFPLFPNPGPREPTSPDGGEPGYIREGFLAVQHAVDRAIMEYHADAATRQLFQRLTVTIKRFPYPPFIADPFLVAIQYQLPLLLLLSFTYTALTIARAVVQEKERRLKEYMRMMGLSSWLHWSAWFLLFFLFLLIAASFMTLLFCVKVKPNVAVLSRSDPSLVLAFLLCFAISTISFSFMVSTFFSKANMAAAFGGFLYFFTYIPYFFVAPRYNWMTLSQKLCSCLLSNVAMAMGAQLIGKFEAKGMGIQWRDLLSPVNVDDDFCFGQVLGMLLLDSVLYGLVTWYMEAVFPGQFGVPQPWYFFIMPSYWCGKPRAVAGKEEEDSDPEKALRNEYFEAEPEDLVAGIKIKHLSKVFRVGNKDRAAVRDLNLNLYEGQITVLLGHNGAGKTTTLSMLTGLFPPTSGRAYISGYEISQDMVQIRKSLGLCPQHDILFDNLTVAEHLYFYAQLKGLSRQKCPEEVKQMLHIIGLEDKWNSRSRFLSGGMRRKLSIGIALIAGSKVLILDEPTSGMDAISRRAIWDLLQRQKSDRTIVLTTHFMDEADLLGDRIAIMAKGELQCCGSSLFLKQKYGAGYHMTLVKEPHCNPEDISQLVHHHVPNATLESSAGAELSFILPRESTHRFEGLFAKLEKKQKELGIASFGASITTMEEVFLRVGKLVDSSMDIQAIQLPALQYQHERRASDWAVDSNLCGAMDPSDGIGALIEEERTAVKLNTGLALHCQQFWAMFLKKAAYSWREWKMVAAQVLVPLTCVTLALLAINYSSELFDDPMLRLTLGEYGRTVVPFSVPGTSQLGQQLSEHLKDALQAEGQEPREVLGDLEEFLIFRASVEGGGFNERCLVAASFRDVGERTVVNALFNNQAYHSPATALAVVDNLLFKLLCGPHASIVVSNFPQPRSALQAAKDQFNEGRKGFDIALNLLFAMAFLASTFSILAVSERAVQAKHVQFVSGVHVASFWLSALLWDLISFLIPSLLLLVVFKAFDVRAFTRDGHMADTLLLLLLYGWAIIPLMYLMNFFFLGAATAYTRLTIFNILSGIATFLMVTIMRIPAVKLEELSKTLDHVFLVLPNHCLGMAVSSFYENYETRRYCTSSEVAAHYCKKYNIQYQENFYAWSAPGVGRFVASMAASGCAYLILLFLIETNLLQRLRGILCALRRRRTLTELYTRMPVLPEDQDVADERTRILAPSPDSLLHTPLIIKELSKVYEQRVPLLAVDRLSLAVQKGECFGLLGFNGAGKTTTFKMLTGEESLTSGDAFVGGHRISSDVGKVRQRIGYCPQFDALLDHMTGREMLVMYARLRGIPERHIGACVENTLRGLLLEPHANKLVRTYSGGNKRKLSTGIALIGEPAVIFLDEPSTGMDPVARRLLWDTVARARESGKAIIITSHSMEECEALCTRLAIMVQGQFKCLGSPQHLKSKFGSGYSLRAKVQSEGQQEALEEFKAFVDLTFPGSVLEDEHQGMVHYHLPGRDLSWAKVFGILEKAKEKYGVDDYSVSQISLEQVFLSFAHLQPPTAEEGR
# UniProt Q9BWD1: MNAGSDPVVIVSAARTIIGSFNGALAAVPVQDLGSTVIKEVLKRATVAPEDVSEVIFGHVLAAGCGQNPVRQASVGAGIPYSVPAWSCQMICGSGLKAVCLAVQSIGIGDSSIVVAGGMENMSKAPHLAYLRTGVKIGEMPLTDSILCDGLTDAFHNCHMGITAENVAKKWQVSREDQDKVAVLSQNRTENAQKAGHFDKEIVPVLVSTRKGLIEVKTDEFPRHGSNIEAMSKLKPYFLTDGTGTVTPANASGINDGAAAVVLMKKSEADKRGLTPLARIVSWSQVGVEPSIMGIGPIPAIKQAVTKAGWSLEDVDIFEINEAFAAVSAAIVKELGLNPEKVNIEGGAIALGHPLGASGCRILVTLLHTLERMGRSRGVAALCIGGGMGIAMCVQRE
# UniProt P53396: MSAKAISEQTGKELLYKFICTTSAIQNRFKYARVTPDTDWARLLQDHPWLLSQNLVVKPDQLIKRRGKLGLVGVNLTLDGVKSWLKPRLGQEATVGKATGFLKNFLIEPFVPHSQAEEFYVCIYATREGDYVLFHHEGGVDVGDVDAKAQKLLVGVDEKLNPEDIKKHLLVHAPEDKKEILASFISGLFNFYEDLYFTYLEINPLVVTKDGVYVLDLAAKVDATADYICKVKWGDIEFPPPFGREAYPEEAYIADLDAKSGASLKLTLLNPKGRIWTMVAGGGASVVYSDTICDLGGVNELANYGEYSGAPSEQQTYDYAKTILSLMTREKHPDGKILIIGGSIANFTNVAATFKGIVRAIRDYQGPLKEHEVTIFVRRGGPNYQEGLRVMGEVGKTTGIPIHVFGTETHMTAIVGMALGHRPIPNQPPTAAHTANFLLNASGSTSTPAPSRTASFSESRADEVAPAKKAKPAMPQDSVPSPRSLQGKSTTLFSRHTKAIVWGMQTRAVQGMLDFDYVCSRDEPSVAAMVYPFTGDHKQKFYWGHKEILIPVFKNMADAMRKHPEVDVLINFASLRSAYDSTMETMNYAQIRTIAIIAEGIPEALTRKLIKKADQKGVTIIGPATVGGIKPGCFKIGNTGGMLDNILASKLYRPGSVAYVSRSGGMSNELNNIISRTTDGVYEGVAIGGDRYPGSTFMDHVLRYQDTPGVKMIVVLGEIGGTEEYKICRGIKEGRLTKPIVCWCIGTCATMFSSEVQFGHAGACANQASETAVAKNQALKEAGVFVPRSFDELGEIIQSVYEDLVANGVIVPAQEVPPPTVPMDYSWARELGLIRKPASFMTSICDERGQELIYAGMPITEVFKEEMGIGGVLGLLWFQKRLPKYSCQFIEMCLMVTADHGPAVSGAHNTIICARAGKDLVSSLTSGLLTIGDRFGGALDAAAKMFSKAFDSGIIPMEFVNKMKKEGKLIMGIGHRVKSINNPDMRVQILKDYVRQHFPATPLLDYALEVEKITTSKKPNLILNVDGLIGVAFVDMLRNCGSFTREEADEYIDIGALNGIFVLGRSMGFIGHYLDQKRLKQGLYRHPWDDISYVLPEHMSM
# UniProt Q15067: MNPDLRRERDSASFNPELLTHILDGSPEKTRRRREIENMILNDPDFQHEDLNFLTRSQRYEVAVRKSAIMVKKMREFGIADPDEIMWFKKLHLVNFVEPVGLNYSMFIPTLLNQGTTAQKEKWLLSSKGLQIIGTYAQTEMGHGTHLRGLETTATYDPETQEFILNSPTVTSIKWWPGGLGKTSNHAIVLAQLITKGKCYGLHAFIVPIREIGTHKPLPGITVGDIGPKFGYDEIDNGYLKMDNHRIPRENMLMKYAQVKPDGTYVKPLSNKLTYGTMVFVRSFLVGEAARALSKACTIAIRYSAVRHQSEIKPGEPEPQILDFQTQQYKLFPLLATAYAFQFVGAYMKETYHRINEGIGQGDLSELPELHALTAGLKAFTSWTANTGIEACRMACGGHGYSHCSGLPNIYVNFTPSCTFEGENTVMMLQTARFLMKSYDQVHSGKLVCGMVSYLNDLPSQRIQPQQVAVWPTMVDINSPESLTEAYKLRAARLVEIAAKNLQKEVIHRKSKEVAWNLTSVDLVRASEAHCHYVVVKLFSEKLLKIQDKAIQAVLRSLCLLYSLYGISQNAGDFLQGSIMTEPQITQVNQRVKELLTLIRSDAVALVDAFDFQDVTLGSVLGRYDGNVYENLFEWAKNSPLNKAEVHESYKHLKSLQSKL
# UniProt P14621: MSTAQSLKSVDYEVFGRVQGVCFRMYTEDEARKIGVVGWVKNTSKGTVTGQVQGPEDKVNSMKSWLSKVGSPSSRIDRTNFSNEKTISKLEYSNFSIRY
# Some of the results follow.
# How the values were obtained:
# Assay in all cases: log2 fold change, soluble protein after heating vs DMSO (PISA); higher = thermal stabilisation; K562 cells, 10 uM, 30 min; active = over 0.2 and 3.5 SD of the protein, either way, in both replicates (recomputed)
# [1] = compound: CC1=C(C=C(C=C1)NC(=O)C2=CC(=CC=C2)C(C)(C)C#N)NC3=CC4=C(C=C3)N=CN(C4=O)C
# Outline: (§1)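 K562 cells at 2×10^6 cells/mL were treated for 30 min with 10 μM compound, and aliquots were heated for 3 min over 48°C-58°C before pooling. Extraction used PBS with 0.5% NP-40 at 4°C, and soluble protein was the supernatant after 21,000xg for 90 min, measured by TMTpro 16plex LC-MS/MS with channel sums equalised. Thermal stability values, relative to control samples and from duplicates, are log2 fold changes.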
# [2] = compound: CC1=C(C=C(C=C1)NC(=O)C2=CC(=CC=C2)N(C)C)NC(=O)C3=CC=C(C=C3)O
# Outline: as §1
# [3] = compound: CC1=CC=C(C=C1)SC2=C3C=C(SC3=CN=C2)C(=O)N
# Outline: as §1
# [4] = compound: CC1=NC(=CC=C1)C2=C(N=C(N2)C(C)(C)C)C3=CC4=NC=CN=C4C=C3
# Outline: as §1
# [5] = compound: CCCCN(Cc1ccc(C(=O)NO)cc1)C(=O)Nc1ccccc1 [Nexturastat A]
# Outline: as §1
# [6] = compound: CCCS(=O)(=O)Nc1ccc(F)c(C(=O)c2c[nH]c3ncc(-c4ccc(Cl)cc4)cc23)c1F [vemurafenib]
# Outline: as §1
# [7] = compound: CCCS(=O)(=O)Nc1ccc(F)c(C(=O)c2c[nH]c3ncc(Cl)cc23)c1F
# Outline: as §1
# [8] = compound: CCCc1cc(C)[nH]c(=O)c1CNC(=O)c1cc(-c2ccnc(N3CCN(C)CC3)c2)cc2c1cnn2C(C)C
# Outline: as §1
# [9] = compound: CCN(CC)Cc1ccc2cc(COC(=O)Nc3ccc(C(=O)NO)cc3)ccc2c1 [givinostat]
# Outline: as §1
# [10] = compound: CCN(CCCOc1ccc2c(Nc3cc(CC(=O)Nc4cccc(F)c4)[nH]n3)ncnc2c1)CCOP(=O)(O)O [barasertib]
# Outline: as §1
Target,log2 fold change [1],log2 fold change [2],log2 fold change [3],log2 fold change [4],log2 fold change [5],log2 fold change [6],log2 fold change [7],log2 fold change [8],log2 fold change [9],log2 fold change [10]
ACTR2 (UniProt P61160),inactive: -0.011,inactive: 0.001,inactive: -0.013,inactive: 0.006,inactive: -0.029,inactive: 0.027,inactive: 0.003,inactive: -0.037,inactive: -0.055,inactive: 0.012
ABHD6 (UniProt Q9BV23),inactive: 0.602,inactive: 0.059,inactive: -0.077,,,,inactive: 0,,,
ADAM15 (UniProt Q13444),inactive: -0.045,inactive: 0.056,inactive: 0,inactive: -0.14,inactive: -0.016,inactive: -0.022,inactive: 0.007,,inactive: 0.308,inactive: -0.043
ABHD5 (UniProt Q8WTS1),inactive: -0.085,inactive: -0.048,inactive: 0.006,inactive: -0.001,,,inactive: 0.158,,inactive: 0.09,inactive: 0.041
ABCF1 (UniProt Q8NE71),inactive: 0.012,inactive: 0.002,inactive: -0.053,inactive: -0.053,inactive: 0.182,inactive: 0.028,inactive: 0.026,inactive: 0.059,inactive: -0.05,inactive: -0.031
ACTR6 (UniProt Q9GZN1),inactive: -0.022,inactive: 0.145,inactive: 0.036,inactive: 0.037,inactive: -0.091,inactive: -0.02,inactive: 0.025,inactive: -0.036,inactive: -0.025,inactive: -0.025
"AAK1, A0A096LP25",inactive: -0.131,inactive: -0.011,,inactive: 0,inactive: 0.068,inactive: -0.016,,inactive: -0.026,inactive: 0.056,inactive: -0.004
ABCB10 (UniProt Q9NRK6),inactive: -0.005,inactive: 0.004,inactive: -0.01,inactive: 0.01,inactive: -0.045,inactive: -0.016,inactive: 0.006,inactive: -0.041,inactive: 0.005,inactive: 0.007
ACSS1 (UniProt Q9NUB1),inactive: -0.159,inactive: 0.014,inactive: -0.016,inactive: 0.297,,inactive: -0.007,inactive: -0.039,inactive: -0.017,inactive: 0.053,inactive: -0.231
A2ML1 (UniProt A8K2U0),inactive: -0.83,inactive: 0.111,inactive: -0.055,,,inactive: -0.097,inactive: -0.125,inactive: -0.032,inactive: 0.007,
ACY1 (UniProt Q03154),inactive: 0.022,inactive: 0.015,inactive: 0.002,inactive: 0.008,inactive: -0.134,inactive: 0.002,inactive: 0,inactive: -0.014,inactive: -0.103,inactive: -0.02
ADAM17 (UniProt P78536),inactive: -0.049,inactive: -0.001,inactive: -0.05,inactive: -0.007,inactive: 0.042,inactive: -0.038,inactive: -0.112,inactive: -0.002,inactive: -0.005,inactive: 0.013
ACBD6 (UniProt Q9BR61),inactive: 0.039,inactive: -0.04,inactive: 0.139,inactive: 0.067,inactive: 0.28,inactive: 0.029,inactive: 0.022,inactive: 0.127,inactive: -0.011,inactive: 0.018
ACP2 (UniProt P11117),inactive: -0.014,inactive: -0.013,inactive: 0.029,inactive: -0.027,inactive: -0.08,inactive: 0.017,inactive: -0.023,inactive: -0.038,inactive: 0,inactive: 0.016
ABL2 (UniProt P42684),inactive: -0.471,inactive: -0.248,,inactive: -0.126,inactive: 0,,,,,inactive: -0.036
ACADM isoform 2 (UniProt P11310),inactive: -0.018,inactive: -0.024,inactive: 0.001,inactive: 0.017,inactive: 0.009,inactive: 0.009,inactive: -0.015,inactive: -0.042,inactive: -0.033,inactive: 0

# Random excerpt: 2 entries already listed, in no set order.
Target,log2 fold change [1],log2 fold change [2],log2 fold change [3],log2 fold change [4],log2 fold change [5],log2 fold change [6],log2 fold change [7],log2 fold change [8],log2 fold change [9],log2 fold change [10]
A2ML1 (UniProt A8K2U0),inactive: -0.83,inactive: 0.111,inactive: -0.055,,,inactive: -0.097,inactive: -0.125,inactive: -0.032,inactive: 0.007,
ACP2 (UniProt P11117),inactive: -0.014,inactive: -0.013,inactive: 0.029,inactive: -0.027,inactive: -0.08,inactive: 0.017,inactive: -0.023,inactive: -0.038,inactive: 0,inactive: 0.016

# Remaining list, next part:

Target,log2 fold change [1],log2 fold change [2],log2 fold change [3],log2 fold change [4],log2 fold change [5],log2 fold change [6],log2 fold change [7],log2 fold change [8],log2 fold change [9],log2 fold change [10]
ABCA4 (UniProt P78363),inactive: -0.145,inactive: -0.068,,inactive: -0.168,active: 0.576,,,inactive: 0.033,inactive: 0.23,inactive: 0.015
ABCA3 (UniProt Q99758),inactive: -0.029,inactive: 0.011,inactive: -0.008,inactive: -0.035,inactive: -0.142,inactive: -0.161,inactive: -0.112,,inactive: 0.059,inactive: 0.196
ABITRAM (UniProt Q9NX38),inactive: 0.011,inactive: -0.036,inactive: 0.062,inactive: 0.027,inactive: -0.114,inactive: 0,inactive: 0.095,inactive: -0.252,,inactive: 0.03
ACAT2 (UniProt Q9BWD1),inactive: -0.002,inactive: 0.039,inactive: 0.04,inactive: 0.027,inactive: -0.057,inactive: -0.025,inactive: 0.04,inactive: -0.016,inactive: -0.061,inactive: 0.015
ACTN4 (UniProt K7EJH8),inactive: -0.031,inactive: 0.068,inactive: 0.007,inactive: 0.003,inactive: -0.084,,inactive: -0.032,inactive: -0.023,inactive: 0.012,inactive: -0.029
ACADVL isoform 3 (UniProt P49748),inactive: -0.004,inactive: 0.01,inactive: 0.024,inactive: -0.002,inactive: -0.073,inactive: -0.009,inactive: 0.01,inactive: -0.002,inactive: 0.026,inactive: 0.006
ABHD12 isoform 2 (UniProt Q8N2K0),inactive: -0.028,inactive: 0.007,inactive: -0.022,inactive: 0.001,inactive: 0.077,inactive: 0.023,inactive: 0.032,inactive: 0.02,inactive: -0.057,inactive: 0.012
ABL1 isoform 2 (UniProt P00519),inactive: 0.073,inactive: 0.007,inactive: -0.007,,inactive: 0.181,inactive: 0.027,inactive: 0.03,inactive: -0.002,inactive: 0.139,inactive: 0.025
ABCC1 (UniProt P33527),inactive: -0.031,inactive: 0,inactive: -0.03,inactive: 0.005,inactive: -0.035,inactive: 0.005,inactive: 0.001,inactive: -0.068,inactive: 0.012,inactive: 0.005
ACAT1 (UniProt P24752),inactive: -0.034,inactive: 0.003,inactive: -0.05,inactive: 0.003,inactive: -0.043,inactive: -0.01,inactive: -0.021,inactive: -0.01,inactive: 0.007,inactive: 0.03
ACLY isoform 2 (UniProt P53396),inactive: 0.094,inactive: -0.095,inactive: 0.015,,inactive: 0.055,inactive: 0.026,inactive: 0,inactive: -0.278,inactive: 0.019,inactive: -0.099
ACOX1 isoform 3 (UniProt Q15067),,,,inactive: 0.035,,inactive: 0.085,,,,
ACYP2 (UniProt P14621),inactive: -0.044,,inactive: 0.038,inactive: 0.059,,inactive: 0.085,inactive: -0.103,inactive: -0.198,inactive: -0.129,
"ACAT1, A0A5F9ZHJ0",inactive: -0.087,,inactive: -0.198,inactive: -0.016,inactive: -0.004,,inactive: 0.003,inactive: -0.181,,inactive: 0.102
ABCA7 (UniProt Q8IZY2),inactive: -0.029,,,,inactive: -0.227,,,,inactive: 0.123,inactive: -0.187
ACSF2 isoform 2 (UniProt Q96CM8),,inactive: -0.043,,,,,,,inactive: -0.097,
